Test results taken from the supplement of paper PMC8256030.
Where “and” joins values, the source holds several entries; their conditions need not be identical. Equal entries are not always repeated. Some of the results follow. Repeats in this data set agree poorly, so a single value says little.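 HEK293T cells were given each compound shortly before transfection with a reporter in which red mCherry is followed by the SARS-CoV-2 frameshift element and then GFP in the −1 frame, so GFP appears only after frameshifting.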

test system: HEK293T; assay: percent viability (nuclei count) relative to control; higher = more viable cells; details: 10 µM; 24 h

Q: Which percent viability does the source give for `CCN(CC)CCCN(c1ccccc1)C1Cc2ccccc2C1` [aprindine] here?
A: 179%

Q: Which percent viability does the source give for `COc1cc(NC(=O)Nc2cccc(CNC(=O)O[C@H]3CCOC3)c2)ccc1-c1cnco1` [merimepodib] here?
A: 145%

Q: `COc1ccc(C(=O)CCC(=O)O)c2ccccc12` [menbutone] was tested. Which percent viability did it give?
A: 186%

Q: `Cc1cnc(C(=O)NCCc2ccc(S(=O)(=O)NC(=O)NC3CCCCC3)cc2)cn1` [Glipizide] was tested. Which percent viability did it give?
A: 120%

Q: `Clc1ccc(COC(Cn2ccnc2)c2ccc(Cl)cc2Cl)c(Cl)c1` (stereo not given) [miconazole] was tested. Which percent viability did it give?
A: 216% and 116%

Q: Which percent viability does the source give for `C=C[C@H]1CN2CC[C@H]1C[C@H]2[C@H](O)c1ccnc2ccc(OC)cc12` [Qualaquin] here?
A: 89.2%

Q: Which percent viability does the source give for `COCCOC(=O)C1=C(C)NC(C)=C(C(=O)OC/C=C/c2ccccc2)C1c1cccc([N+](=O)[O-])c1` (stereo not given) [Cilnidipine] here?
A: 333%

Q: `CC1(C)O[C@@H]2C[C@H]3[C@@H]4CCC5=CC(=O)C=C[C@]5(C)[C@@]4(F)[C@@H](O)C[C@]3(C)[C@]2(C(=O)CO)O1` was tested. Which percent viability did it give?
A: 140%

Q: `CC1=C(C/C=C(\C)CCC[C@H](C)CCC[C@H](C)CCCC(C)C)C(=O)c2ccccc2C1=O` was tested. Which percent viability did it give?
A: 88.3%

Q: Which percent viability does the source give for `CCOC(=O)c1ncn2c1CN(C)C(=O)c1cc(F)ccc1-2` [flumazenil] here?
A: 282% and 213%

Q: How did the percent viability turn out when `CC[C@]1(O)C[C@H]2CN(CCc3c([nH]c4ccccc34)[C@@](C(=O)OC)(c3cc4c(cc3OC)N(C=O)[C@H]3[C@@](O)(C(=O)OC)[C@H](OC(C)=O)[C@]5(CC)C=CCN6CC[C@]43[C@@H]65)C2)C1` was run?
A: 17.8%

Q: Which percent viability does the source give for `C[N+](C)(C)CCO.[Cl-]` [choline chloride] here?
A: 328%

Q: For `CC(C)C[C@H](NC(=O)CNC(=O)[C@H](Cc1ccc(O)cc1)NC(=O)[C@H](CO)NC(=O)[C@H](Cc1c[nH]c2ccccc12)NC(=O)[C@H](Cc1cnc[nH]1)NC(=O)[C@@H]1CCC(=O)N1)C(=O)N[C@@H](CCCNC(=N)N)C(=O)N1CCC[C@H]1C(=O)NCC(N)=O` [gonadorelin], which percent viability is on record?
A: 333%

Q: `COc1cc(O)c(C(=O)c2ccccc2)cc1S(=O)(=O)O` [sulisobenzone] was tested. Which percent viability did it give?
A: 127%

Q: For `CC(=O)Nc1ccc(OCCOCCOc2ccc(NC(C)=O)cc2)cc1` [diamfenetide], which percent viability is on record?
A: 126%

Q: Which percent viability does the source give for `CN1CCOC(c2ccccc2)c2ccccc2C1` (stereo not given) [nefopam] here?
A: 148%

Q: For `O=C(O)COc1ccc(C(=O)c2cccs2)c(Cl)c1Cl` [tienilic acid], which percent viability is on record?
A: 123%

Q: For `O=C(O)C1(C(=O)O)CCC1.[NH2-].[NH2-].[Pt+2]` [Carboplatin], which percent viability is on record?
A: 240%

Q: Which percent viability does the source give for `CN1CCC[C@@H]1Cc1c[nH]c2ccc(CCS(=O)(=O)c3ccccc3)cc12` [eletriptan] here?
A: 172%

Q: For `CC(=O)N(CC(O)CO)c1c(I)c(C(=O)NCC(O)CO)c(I)c(C(=O)NCC(O)CO)c1I` (stereo not given) [iohexol], which percent viability is on record?
A: 186%

Q: With `COC[C@H]1O[C@@H](OC2OC[C@@H]3O[C@]4(O[C@H]3[C@H]2OC(=O)C(C)C)O[C@H](C)[C@@](O)(C(C)=O)[C@@H]2OCO[C@H]24)[C@@H](OC)[C@@H](O)[C@@H]1O[C@@H]1O[C@H](C)[C@H](OC)[C@H](O[C@H]2C[C@@]3(C)OC4(C[C@@H](O)[C@H](O[C@H]5C[C@@H](O)[C@H](OC(=O)c6c(C)c(Cl)c(O)c(Cl)c6OC)[C@@H](C)O5)[C@@H](C)O4)O[C@@H]3[C@@H](C)O2)[C@H]1O` (stereo not given in full) [avilamycin] as the compound, how does the percent viability read?
A: 292%

Q: Which percent viability does the source give for `FC(F)(Cl)C(F)(F)Cl` [cryofluorane] here?
A: 167%

Q: With `C=C[C@@]1(C)CC(=O)[C@]2(O)[C@@]3(C)[C@@H](O)CCC(C)(C)[C@@H]3[C@H](O)[C@H](OC(C)=O)[C@@]2(C)O1` as the compound, how does the percent viability read?
A: 363%

Q: With `CCC(O)(c1ccccc1)c1cccc(C(F)(F)F)c1` (stereo not given) [flumecinol] as the compound, how does the percent viability read?
A: 150%

Q: Which percent viability does the source give for `Cc1nc(-c2ccc(OCC(C)C)c(C#N)c2)sc1C(=O)O` [febuxostat] here?
A: 200%

Q: `Cc1ccc(=O)n(-c2ccccc2)c1` [pirfenidone] was tested. Which percent viability did it give?
A: 159%

Q: `COC(=S)NCCn1c([N+](=O)[O-])cnc1C` [carnidazole] was tested. Which percent viability did it give?
A: 144%

Q: Which percent viability does the source give for `C[C@H]1[C@H](NC(=O)/C(=N\OC(C)(C)C(=O)O)c2csc(N)n2)C(=O)N1S(=O)(=O)O` [aztreonam] here?
A: 245%

Q: For `CN(C)C(=O)C(CCN1CCC(O)(c2ccc(Cl)cc2)CC1)(c1ccccc1)c1ccccc1` [loperamide], which percent viability is on record?
A: 339% and 343%

Q: How did the percent viability turn out when `COc1ccccc1Oc1c(NS(=O)(=O)c2ccc(C(C)(C)C)cc2)nc(-c2ncccn2)nc1OCCO` [bosentan] was run?
A: 228%

Q: How did the percent viability turn out when `CO[C@H]1/C=C/O[C@@]2(C)Oc3c(C)c(O)c4c(O)c(cc(O)c4c3C2=O)NC(=O)/C(C)=C\C=C\[C@H](C)[C@H](O)[C@@H](C)[C@@H](O)[C@@H](C)[C@H](OC(C)=O)[C@@H]1C` was run?
A: 136%

Q: With `Cc1cccc(Nc2ccncc2S(=O)(=O)NC(=O)NC(C)C)c1` [Torasemide] as the compound, how does the percent viability read?
A: 264%

Q: How did the percent viability turn out when `Cc1cc2c(OCC(CNC(C)(C)C)OC(=O)c3ccccc3)cccc2[nH]1` (stereo not given) [bopindolol] was run?
A: 188%

Q: `C#C[C@]1(O)CC[C@H]2[C@@H]3CCC4=CCCC[C@@H]4[C@H]3C(=C)C[C@@]21CC` [desogestrel] was tested. Which percent viability did it give?
A: 238%

Q: How did the percent viability turn out when `COc1ccc2cc([C@H](C)C(=O)O)ccc2c1` [Naproxen] was run?
A: 311%

Q: How did the percent viability turn out when `CCOC(=O)O[C@]1(C(=O)OCCl)CC[C@H]2[C@@H]3CCC4=CC(=O)C=C[C@]4(C)[C@H]3[C@@H](O)C[C@@]21C` [Loteprednol] was run?
A: 249%

Q: Which percent viability does the source give for `CC(=O)O[C@]1(C(C)=O)CC[C@H]2[C@@H]3C=C(Cl)C4=CC(=O)CC[C@]4(C)[C@H]3CC[C@@]21C` [Chlormadinone Acetate] here?
A: 73.9%

Q: For `NC(=O)CN1C(=O)COc2ccccc21` [paraxazone], which percent viability is on record?
A: 156%

Q: How did the percent viability turn out when `CCCC(CCC)C(=O)O[C@H]1C[C@H]2CC[C@@H](C1)[N+]2(C)C` [octatropine methylbromide] was run?
A: 159%

Q: How did the percent viability turn out when `CC(=O)N[C@@H](CCC(N)=O)C(=O)O` [aceglutamide] was run?
A: 184%
